In US12486302B2, “Somatostatin receptor antagonist compounds and methods of using the same” (CDRD VENTURES INC., priority 2016, dated 2025):
Some results were stated once for a whole list of compounds, not compound by compound. Where a SMILES comes first, the peptide text is derived from it. Bridges are numbered along the chain shown (N, C = ends). [ ]: non-standard residue; d: D form. dPhe(4-CONH2) = NC(=O)c1ccc(C[C@@H](N)C(=O)O)cc1; NMePhe(4-Cl) = CN[C@@H](Cc1ccc(Cl)cc1)C(=O)O; Phe(4-Cl) = N[C@@H](Cc1ccc(Cl)cc1)C(=O)O; NMeY = CN[C@@H](Cc1ccc(O)cc1)C(=O)O; dNMeY = CN[C@H](Cc1ccc(O)cc1)C(=O)O; NMeT = CN[C@H](C(=O)O)[C@@H](C)O

Sequences of proteins named here, by UniProt entry; tags and fusion partners are left off. A change or cut given only in a name is not applied to a line headed by its entry.
UniProt P30874: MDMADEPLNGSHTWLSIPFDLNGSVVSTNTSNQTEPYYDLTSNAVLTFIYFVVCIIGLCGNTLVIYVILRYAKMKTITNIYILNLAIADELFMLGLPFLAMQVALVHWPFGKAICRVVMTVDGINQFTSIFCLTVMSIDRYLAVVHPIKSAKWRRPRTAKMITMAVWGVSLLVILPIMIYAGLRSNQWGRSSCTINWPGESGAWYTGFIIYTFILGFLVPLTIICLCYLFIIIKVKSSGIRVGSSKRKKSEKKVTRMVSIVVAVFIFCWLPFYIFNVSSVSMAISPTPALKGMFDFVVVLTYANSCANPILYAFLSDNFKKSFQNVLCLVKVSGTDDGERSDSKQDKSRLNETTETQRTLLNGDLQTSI

Target: somatostatin type 2 (SSTR2) receptors (Homo sapiens, UniProt P30874)
Assay: PathHunter β-Arrestin assay, antagonist mode, SSTR2
Assay type: cell-based
Outline: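 Cells co-expressing PK-tagged human receptor and EA-β-Arrestin were pre-incubated with compound, then challenged with agonist at EC80. β-Gal complementation read by chemiluminescence; % inhibition normalized to EC80 and vehicle controls at 10 concentrations (log 3 steps from 1 μM down to 5e-5 μM), fitted for IC50.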

Row | Compound | antagonistic activity with respect to SSTR2
1 | C[C@@H](O)[C@@H]1NC(=O)[C@H](CCCCN)NC(=O)[C@@H](Cc2ccc(C(N)=O)cc2)NC(=O)[C@H](Cc2ccc(O)cc2)NC(=O)[C@H](NC(=O)[C@@H](N)Cc2ccc(Cl)cc2)CSSC[C@@H](C(=O)N(C)[C@H](Cc2ccc(O)cc2)C(N)=O)NC1=O [Compound 79, H-Cpa-[DCys- Tyr-DPhe(4- carbamoyl)-Lys- Thr-Cys]- NMeDTyr-NH2] (H-[Phe(4-Cl)][dC]Y[dPhe(4-CONH2)]KTC[dNMeY]-NH2; disulfide 2-7) | exhibited antagonistic activity
2 | CN[C@@H](Cc1ccc(Cl)cc1)C(=O)N[C@@H]1CSSC[C@@H](C(=O)N(C)[C@H](Cc2ccc(O)cc2)C(N)=O)NC(=O)[C@H]([C@@H](C)O)N(C)C(=O)[C@H](CCCCN)NC(=O)[C@@H](Cc2ccc(C(N)=O)cc2)NC(=O)[C@H](Cc2ccc(O)cc2)N(C)C1=O [Compound 80, H-NMeCpa-[DCys-NMeTyr-DPhe(4-carbamoyl)-Lys-NMeThr-Cys]-NMeTyr-NH2] (H-[NMePhe(4-Cl)][dC][NMeY][dPhe(4-CONH2)]K[NMeT]C[dNMeY]-NH2; disulfide 2-7) | exhibited antagonistic activity
